In all, about 1,100 compounds were measured (“Renilla luciferase signal (cell health) relative to plate median”: median about 0.97, highest 2% from about 1.6 on). Only a part is listed here, and it is no random draw.

Data on 32 molecules can be found in the supplement of paper PMC9254222.

In the test the test system is HEK293T (UBE3A T485A transfected, BAR Wnt reporter). The test is described as follows: Renilla luciferase signal (cell health) relative to plate median (fold (linear ratio)); higher = higher Renilla signal. To be noted: 24 h. In outline: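 HEK293T cells were seeded at 4500 cells/well in white 384-well plates and grown in DMEM with 10% FBS at 37°C and 5% CO2. The cells were transfected using Fugene 6 with a BAR firefly luciferase Wnt reporter, TK-Renilla and an expression plasmid, and four hours later robots added the chemicals at 0.01–100 uM for 24 h before a Dual-Glo luciferase readout. Wnt activity was taken as the firefly/Renilla ratio and cell health as raw Renilla, each median-centred per plate. Values are averages of four biological replicates.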

In the case of `CCCCCCOC(=O)c1ccccc1C(=O)OCCCCCC` [Dihexyl phthalate], the Renilla luciferase signal was 1.38 (concentration: 0.1 uM), 1.19 (concentration: 1 uM), 1.17 (concentration: 10 uM) and 1.16 (concentration: 100 uM).

`NC1=NC(O)C2C3OC4(O)OC(C(O)C2(N1)C4O)C3(O)CO` (stereo not given) [Tetrodotoxin (TTX)]: the Renilla luciferase signal runs as follows: (concentration: 0.01 uM) 1.02; (concentration: 0.1 uM) 0.976; (concentration: 1 uM) 0.904; (concentration: 10 uM) 1.03; (concentration: 100 uM) 2.57.

For the molecule `CC1(C)C(C=C(Cl)Cl)C1C(=O)OC(C#N)c1ccc(F)c(Oc2ccccc2)c1` (stereo not given) [Cyfluthrin], the Renilla luciferase signal runs as follows: (concentration: 0.01 uM) 1.01; (concentration: 0.1 uM) 1.31; (concentration: 1 uM) 1.27; (concentration: 10 uM) 0.975; (concentration: 100 uM) 1.1.

With `C=CCOC(=O)c1ccccc1C(=O)OCC=C` [Diallyl phthalate], the Renilla luciferase signal by setting is: (concentration: 0.1 uM) 0.826; (concentration: 1 uM) 0.959; (concentration: 10 uM) 0.98; (concentration: 100 uM) 1.09.

`CC(O)CCO` (stereo not given) [1,3-Butanediol]: the Renilla luciferase signal (concentration: 0.1 uM) was determined as 1.06, the Renilla luciferase signal (concentration: 1 uM) turned out to be 1.08, the Renilla luciferase signal (concentration: 10 uM) was determined as 1.16 and the Renilla luciferase signal (concentration: 100 uM) turned out to be 1.47.

Take `CCOC(=O)CC(SP(=S)(OC)OC)C(=O)OCC` (stereo not given) [Malathion]: the Renilla luciferase signal worked out at 0.756 (concentration: 0.01 uM); 0.819 (concentration: 0.1 uM); 1.01 (concentration: 1 uM); 0.843 (concentration: 10 uM); 1.02 (concentration: 100 uM).

Turning to `C=CCC1=C(C)C(OC(=O)C2C(C=C(C)C)C2(C)C)CC1=O` (stereo not given) [Allethrin], the Renilla luciferase signal runs as follows: (concentration: 0.01 uM) 0.962; (concentration: 0.1 uM) 1.01; (concentration: 1 uM) 1.02; (concentration: 10 uM) 1.06; (concentration: 100 uM) 0.791.

For the molecule `CC(C)N(C(=O)COc1nnc(C(F)(F)F)s1)c1ccc(F)cc1` [Flufenacet], the Renilla luciferase signal is, setting by setting: (concentration: 0.01 uM) 0.851; (concentration: 0.1 uM) 1.02; (concentration: 1 uM) 0.998; (concentration: 10 uM) 1.08; (concentration: 100 uM) 1.01.

Regarding `CCc1cccc(CC)c1N` [2,6-Diethylaniline], the Renilla luciferase signal (concentration: 0.1 uM) was found to be 0.537, the Renilla luciferase signal (concentration: 1 uM) amounted to 0.613, the Renilla luciferase signal (concentration: 10 uM) was 0.518 and the Renilla luciferase signal (concentration: 100 uM) amounted to 0.414.

On to `O=C(O)CCCOc1ccc(Cl)cc1Cl`, for which the Renilla luciferase signal (concentration: 0.01 uM) came to 1.02; the Renilla luciferase signal (concentration: 0.1 uM) stood at 0.895; the Renilla luciferase signal (concentration: 1 uM) was 0.898; the Renilla luciferase signal (concentration: 10 uM) was found to be 0.957; the Renilla luciferase signal (concentration: 100 uM) stood at 1.44.

`ClC1(Cl)C2(Cl)C3(Cl)C4(Cl)C(Cl)(Cl)C5(Cl)C3(Cl)C1(Cl)C5(Cl)C24Cl` (stereo not given) [Mirex]: the Renilla luciferase signal (concentration: 0.1 uM) was found to be 1.03, the Renilla luciferase signal (concentration: 1 uM) is 1.1, the Renilla luciferase signal (concentration: 10 uM) stood at 1.12 and the Renilla luciferase signal (concentration: 100 uM) came out at 1.14.

For `CCOP(=S)(Oc1ccc([N+](=O)[O-])cc1)c1ccccc1` (stereo not given), the Renilla luciferase signal reads like this: (concentration: 0.1 uM) 0.992; (concentration: 1 uM) 0.93; (concentration: 10 uM) 1.06; (concentration: 100 uM) 1.23.

Take `COc1cc(OC)nc(NC(=O)[N-]S(=O)(=O)c2ncccc2OCC(F)(F)F)n1.[Na+]` [Trifloxysulfuron-sodium]: the Renilla luciferase signal amounted to 0.702 (concentration: 0.01 uM); 0.86 (concentration: 0.1 uM); 0.851 (concentration: 1 uM); 0.762 (concentration: 10 uM); 1.24 (concentration: 100 uM).

With `CNC(=O)CSP(=S)(OC)OC` [Dimethoate], the Renilla luciferase signal (concentration: 100 uM) came to 1.67.

Turning to `C=CCC1=C(C)[C@@H](OC(=O)[C@@H]2[C@@H](C=C(C)C)C2(C)C)CC1=O` [S-Bioallethrin], the Renilla luciferase signal (concentration: 0.01 uM) was 0.864; the Renilla luciferase signal (concentration: 0.1 uM) was 1.03; the Renilla luciferase signal (concentration: 1 uM) is 0.952; the Renilla luciferase signal (concentration: 10 uM) came to 0.869; the Renilla luciferase signal (concentration: 100 uM) came to 0.425.

Consider `Nc1ccc(Cl)cc1N` [4-Chloro-1,2-diaminobenzene], for which the Renilla luciferase signal (concentration: 0.1 uM) amounted to 1.05, the Renilla luciferase signal (concentration: 1 uM) was 0.965, the Renilla luciferase signal (concentration: 10 uM) came out at 0.612 and the Renilla luciferase signal (concentration: 100 uM) was 0.0486.

As to `CCOC(=O)C(Cl)Cc1cc(-n2nc(C)n(C(F)F)c2=O)c(F)cc1Cl` (stereo not given) [Carfentrazone-ethyl], the Renilla luciferase signal amounted to 0.995 (concentration: 0.01 uM); 1.11 (concentration: 0.1 uM); 0.895 (concentration: 1 uM); 0.956 (concentration: 10 uM); 1.9 (concentration: 100 uM).

As for `CC12CC1(C)C(=O)N(c1cc(Cl)cc(Cl)c1)C2=O` (stereo not given) [Procymidone], the Renilla luciferase signal runs as follows: (concentration: 0.1 uM) 0.813; (concentration: 1 uM) 1.07; (concentration: 10 uM) 1.07; (concentration: 100 uM) 1.27.

Take `S=C1NCCN1` [Ethylene thiourea]: the Renilla luciferase signal runs as follows: (concentration: 0.01 uM) 1.02; (concentration: 0.1 uM) 0.976; (concentration: 1 uM) 0.949; (concentration: 10 uM) 0.976; (concentration: 100 uM) 1.49.

Regarding `OCCOc1ccccc1` [2-Phenoxyethanol], the Renilla luciferase signal (concentration: 100 uM) turned out to be 1.74.

Turning to `COC(=O)C(C)Oc1ccc(Oc2ccc(Cl)cc2Cl)cc1` (stereo not given) [Diclofop-methyl], the Renilla luciferase signal reads like this: (concentration: 0.01 uM) 1.01; (concentration: 0.1 uM) 0.869; (concentration: 1 uM) 0.732; (concentration: 10 uM) 0.936; (concentration: 100 uM) 2.15.

For the molecule `CCCCC(CC)COC(=O)c1ccccc1C(=O)O` (stereo not given), the Renilla luciferase signal worked out at 0.848 (concentration: 0.01 uM); 1.06 (concentration: 0.1 uM); 0.966 (concentration: 1 uM); 1.04 (concentration: 10 uM); 1.23 (concentration: 100 uM).

Regarding `N#CC(CCc1ccc(Cl)cc1)(Cn1cncn1)c1ccccc1` (stereo not given) [Fenbuconazole], the Renilla luciferase signal was found to be 1.04 (concentration: 0.01 uM); 0.994 (concentration: 0.1 uM); 0.947 (concentration: 1 uM); 1 (concentration: 10 uM); 0.412 (concentration: 100 uM).

Regarding `NC(=O)[O-].[NH4+]` [Ammonium carbamate], the Renilla luciferase signal (concentration: 0.1 uM) is 1.07, the Renilla luciferase signal (concentration: 1 uM) worked out at 1.11, the Renilla luciferase signal (concentration: 10 uM) is 1.29 and the Renilla luciferase signal (concentration: 100 uM) turned out to be 1.2.

With `COP(=O)(NC(C)=O)SC` (stereo not given) [Acephate], the Renilla luciferase signal (concentration: 0.01 uM) is 0.777; the Renilla luciferase signal (concentration: 0.1 uM) was 0.825; the Renilla luciferase signal (concentration: 1 uM) was 0.95; the Renilla luciferase signal (concentration: 10 uM) was found to be 1; the Renilla luciferase signal (concentration: 100 uM) was 1.52.

On to `COC(=O)N(C(=O)N1CO[C@@]2(C(=O)OC)Cc3cc(Cl)ccc3C2=N1)c1ccc(OC(F)(F)F)cc1` [Indoxacarb], for which the Renilla luciferase signal runs as follows: (concentration: 0.01 uM) 1.15; (concentration: 0.1 uM) 0.966; (concentration: 1 uM) 0.983; (concentration: 10 uM) 0.969; (concentration: 100 uM) 0.281.

As for `Oc1ccc(Cl)cc1Cc1ccccc1` [Clorophene], the Renilla luciferase signal is, setting by setting: (concentration: 0.01 uM) 1.13; (concentration: 0.1 uM) 0.926; (concentration: 1 uM) 0.908; (concentration: 10 uM) 0.91; (concentration: 100 uM) 0.023.

For `CCOP(=S)(OCC)Oc1cc(C)nc(C(C)C)n1` [Diazinon], the Renilla luciferase signal runs as follows: (concentration: 0.01 uM) 1.18; (concentration: 0.1 uM) 1.29; (concentration: 1 uM) 1; (concentration: 10 uM) 1.16; (concentration: 100 uM) 1.38.

`CCN(CC)c1nc(C)cc(OP(=S)(OC)OC)n1` [Pirimiphos-methyl]: the Renilla luciferase signal turned out to be 1.11 (concentration: 0.01 uM); 1.2 (concentration: 0.1 uM); 1 (concentration: 1 uM); 0.992 (concentration: 10 uM); 1.53 (concentration: 100 uM).

Turning to `CN(C)c1ccccc1` [N,N-Dimethylaniline], the Renilla luciferase signal amounted to 1.06 (concentration: 0.1 uM), 0.888 (concentration: 1 uM), 1.04 (concentration: 10 uM) and 0.97 (concentration: 100 uM).

Consider `O=S(=O)([O-])C(F)(F)C(F)(F)C(F)(F)C(F)(F)C(F)(F)C(F)(F)C(F)(F)C(F)(F)F.[K+]`, for which the Renilla luciferase signal was 0.964 (concentration: 0.1 uM), 0.803 (concentration: 1 uM), 0.865 (concentration: 10 uM) and 0.931 (concentration: 100 uM).

`CNC(=O)Oc1cccc2c1OC(C)(C)C2` [Carbofuran]: the Renilla luciferase signal reads like this: (concentration: 0.1 uM) 1.05; (concentration: 1 uM) 1.01; (concentration: 10 uM) 0.953; (concentration: 100 uM) 0.523.
